In patent publication US20090130763A1, “Method of Controlling Degradation of Protein by Tetracycline Antibiotic” (priority 2005, published 2009):
At least one compound was matched to its structure with a doubt left.

Sequences of proteins named here, by UniProt entry; tags and fusion partners are left off.
UniProt P04483, whole entry R28Q/D95N/L101S/G102D: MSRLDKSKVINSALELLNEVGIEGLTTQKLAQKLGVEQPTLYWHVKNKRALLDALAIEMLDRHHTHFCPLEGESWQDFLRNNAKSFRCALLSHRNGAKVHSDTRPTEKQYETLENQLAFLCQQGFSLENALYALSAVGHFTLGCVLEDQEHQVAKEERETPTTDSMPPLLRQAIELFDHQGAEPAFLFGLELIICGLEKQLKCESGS
UniProt P04483, whole entry D95N/L101S/G102D: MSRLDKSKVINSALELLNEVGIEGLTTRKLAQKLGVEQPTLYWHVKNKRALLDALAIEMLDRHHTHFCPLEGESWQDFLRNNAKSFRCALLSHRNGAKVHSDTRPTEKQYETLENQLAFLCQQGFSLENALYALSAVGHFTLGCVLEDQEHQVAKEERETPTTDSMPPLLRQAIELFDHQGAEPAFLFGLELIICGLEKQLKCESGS

How the values were obtained:
[1] = tested on: human cell line HEp-2; assay: Control of toxin gene (DTA) expression: viable cell count; assay type: cell-based; details: HEp-2 with double control (transcription and protein degradation) of DTA (FIG. 8)
[2] = target: T1, TetR-EGFP having mutations of R28Q, D95N, L101S and G102D (Escherichia coli, UniProt P04483, D95N/G102D/L101S/R28Q); assay: Assessment in transgenic mouse: green fluorescence after doxycycline; assay type: in vivo
T1 construct: expressed in transfected cells; host or cells: transgenic mouse (CAG promoter, IRES-tandem dimer DsRed as a separate protein)

[3] = target: T2, TetR-EGFP variant, to which the R28Q mutation was further introduced (Escherichia coli, UniProt P04483, D95N/G102D/L101S/R28Q); assay: Doxycycline-dependent enhancement of fluorescence with R28Q TetR-EGFP variant; assay type: cell-based; details: R28Q variant (FIG. 2B)
T2 construct: expressed in transfected cells; host or cells: HEp-2 (human), vector pEB6CAG

[4] = target: T3, variant TetR-EGFP (Escherichia coli, UniProt P04483, D95N/G102D/L101S); assay: Doxycycline effect on fluorescence of variant TetR-EGFP-expressed cells (flow cytometer; concentration and time course); assay type: cell-based
T3 construct: expressed in transfected cells; host or cells: HEp-2 (human), vector pEB6CAG

[5] = target: T4, TetR-EGFP in which mutations R28Q, D95N, L101S and G102D were introduced (Escherichia coli, UniProt P04483, D95N/G102D/L101S/R28Q); assay: Assessment in zebrafish: fluorescence of fertilized eggs injected with variant TetR-EGFP mRNA; assay type: in vivo
T4 construct: expressed in transfected cells; host or cells: fertilized zebrafish eggs injected with synthetic mRNA

[6] = target: T5, wild-type TetR-EGFP (Escherichia coli, UniProt P04483); assay: Doxycycline effect on fluorescence of wild-type TetR-EGFP-expressed cells; assay type: cell-based; details: 1.5 μg/ml, 4 days, HEp-2 (FIG. 1D)
T5 construct: expressed in transfected cells; host or cells: HEp-2 (human), vector pEB6CAG

[7] = flow cytometer, various concentrations (FIG. 3)

C[C@H]1c2cccc(O)c2C(=O)C2=C(O)[C@]3(O)C(=O)C(C(N)=O)=C(O)[C@@H](N(C)C)[C@@H]3[C@@H](O)[C@@H]21 [doxycycline]
viable cells when doxycycline was added [1]: the cells were extinguished | green fluorescence at 8 hours ([2]; intraperitoneally administered (FIG. 5)): systemic increase of the green fluorescence | time at which green fluorescent intensity (ratio of green to red) reached the maximum ([2]; intraperitoneally administered (FIG. 6)): 8 h | degree of doxycycline-dependent enhancement of the fluorescence [3]: maintained | change in fluorescence ([4]; 1.5 μg/ml, 4 days, HEp-2, TetR with all 3 mutations (D95N, L101S, G102D) (FIG. 1D)): more markedly enhanced fluorescence | time by which fluorescence reached almost an equilibrium after addition ([4]; 1.5 μg/ml, measured every 8 hours (FIG. 4A)): ≤ 24 h | change in fluorescence for the initial 8 hours after addition ([4]; 1.5 μg/ml, measured every 8 hours, compared to cells expressing only EGFP (FIG. 4A)): sudden increase in the fluorescence | concentration at which enhanced fluorescence was observed [4, 7]: ≥ 0.05 µg/mL | concentration showing the maximum fluorescent intensity [4, 7]: 1.5 µg/mL | eggs in which a weak fluorescence was observed ([5]; 1.5 μg/ml, 24 hours after addition (FIG. 7)): 40% | eggs in which a very strong fluorescence was observed ([5]; 15 μg/ml added (FIG. 7)): 100% | change in fluorescence [6]: no change
